## Library screening results

A: 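Whole-cell assay for inhibitors of Mycobacterium tuberculosis growth, labelled Cornell in the record; the read-out is not stated. The concentration is filed as 10 mM, unlikely as a test dose, so the dose is not known. Higher means stronger inhibition (inferred from two other growth screens of the library). About 53,000 compounds were tested under these conditions; 1.7% (about 900) showed 50% or more at least once.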
B: 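Assay on Mycobacterium tuberculosis, filed only as a heat shock assay from Cornell; the read-out is not stated. The concentration is filed as 10 mM, unlikely as a test dose, so the dose is not known. The record gives no direction; compounds that gave an IC50 in retests scored well above the rest, so higher reads as stronger inhibition. Size under these conditions: about 69,000 compounds, about 930 of them at 50% or above in at least one test.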

Results are given as percent effect.
How 0% and 100% were set is not recorded. Most values in the screen are low, and negative values occur.
This is an unselected part of the compounds tested.

Result for Cc1nc(C2CCCN2C(=O)CCOCc2ccccc2)no1 (stereo unspecified) was A: -21.07%; B: -20.97%. CCN(CCO)Cc1cn(-c2cccc(F)c2)nc1-c1ccc(C)o1 read A: 41.65%; B: -16.49%. With CCc1cnc(CNC(=O)NCCCO)s1 the screen gave A: 18.48%; B: 9.215%. With Cc1ccc(OC(C)CNC(=O)c2c[nH]nn2)cc1 (stereo unspecified) the screen gave A: 0.15%; B: 0.06583%. [H][C@@]12CN(Cc3csc(C)n3)C[C@]1([H])CN(C(=O)c1ccc(C)nc1)C2 read A: -6.784%; B: -7.93%. Result for [H][C@]12CC=C(CN3CCCn4nc(CNS(C)(=O)=O)cc4C3)[C@]([H])(C1)C2(C)C was A: -9.252%; B: -4.025%.

Result for CCOc1ncccc1CNC(=O)Nc1ccc(OC)c(OC)c1 was B: 6.149%. Result for CN(Cc1ccc(OCC(=O)N2CCOCC2)cc1)S(C)(=O)=O was A: 8.814%; B: 0.1192%. For O=C(c1cncc(NCC2COc3ccccc3C2)n1)N1CCCC1 (stereo unspecified) the result was A: -18.45%; B: 7.83%. CCC1(O)CCCN(c2nc(-c3ccccn3)nc3c2c(C)nn3C)C1 (stereo unspecified) read A: 23.24%; B: 100.9%. For Cc1nnc2ccc(NCC3(N4CCCCC4)CCOCC3)nn12 the result was B: -4.421%. For Cc1cc(CN(C)C(=O)c2ccc(Cl)c(S(C)(=O)=O)c2)no1 the result was B: -11.55%.

COc1ccc(CNCc2nnc3n2CC(C(F)(F)F)CC3)cc1 (stereo unspecified) read A: -26.46%; B: -0.3894%. O=C(O)C(F)(F)F.[H][C@]12C[C@@H](CN(C)C)N(C(C)=O)[C@@]1([H])CCN(C(=O)c1ccno1)C2 read A: 20.54%; B: -17.7%. Result for O=C(O)C(F)(F)F.O=C(O)C(F)(F)F.O=S(=O)(C1CC1)N1CCC2(CCCN(Cc3ccccn3)C2)C1 (stereo unspecified) was A: -2.379%; B: 16.64%. CN(C)c1ccc(C(O)CNC(=O)NCCCc2ccccc2)cc1 (stereo unspecified) gave A: 16.15%; B: -11.72%. For NC(=O)C1CCN(C(=O)CSC2CCCc3ccccc32)CC1 (stereo unspecified) the result was B: -6.659%. For C=C(C)CN1CCCC(CNS(C)(=O)=O)C1 (stereo unspecified) the result was A: -3.283%; B: -3.657%.

For CCOc1ccccc1NC(=O)N(CCO)Cc1ccsc1 the result was A: -5.334%; B: -21.82%. Result for COc1cc(C)ccc1OCCC(=O)N1CCC(C(N)=O)C1 (stereo unspecified) was A: -7.175%; B: 1.902%. Cc1ccc(CN2C(=O)CC[C@]23CC[C@@H](NC2CCOC2)CC3)cc1.O=C(O)C(F)(F)F (stereo partly specified) read B: 2.964%. With O=C(O)C(F)(F)F.[H][C@@]12CCN(S(=O)(=O)CC)C[C@]1([H])[C@@H](CN(C)C)OC2 the screen gave A: -44.36%; B: -39.84%. For CC(=O)N1Cc2ccccc2C[C@H]1C(=O)N(C)Cc1ccccn1 the result was B: -15.66%. For COC(=O)[C@H]1C[C@@H](O)CCN1S(=O)(=O)c1c(C)cc(OC)c(C)c1C the result was B: -3.883%.

For CC(NC(=O)NCCCN(C)C)c1ccc2c(c1)CCC(=O)N2 (stereo unspecified) the result was A: 8.351%; B: 19.5%. With CCC(NC(=O)COC)c1ccccc1OCC(=O)N1CCCC1 (stereo unspecified) the screen gave B: 14.68%. CN(C)CC1(O)CCN(C(=O)c2ccc(-n3cccn3)cc2Cl)C1 (stereo unspecified) gave B: -21.96%. With O=C(O)C1(O)CCN(c2ccnc3c(C(F)(F)F)cccc23)CC1 the screen gave A: -12.47%; B: 14.66%. Cc1cc(CN2CCC(CNS(=O)(=O)c3c(C)noc3C)CC2)c(C)o1 read A: 9.776%; B: -15.1%.

Some entries from above, unchanged:

CCC1(O)CCCN(c2nc(-c3ccccn3)nc3c2c(C)nn3C)C1 (stereo unspecified) gave A: 23.24%; B: 100.9%.
[H][C@@]12CN(Cc3csc(C)n3)C[C@]1([H])CN(C(=O)c1ccc(C)nc1)C2 gave A: -6.784%; B: -7.93%.
O=C(O)C1(O)CCN(c2ccnc3c(C(F)(F)F)cccc23)CC1 gave A: -12.47%; B: 14.66%.

Measurements from “University of Dundee, Small-Polar-MMV Screening Library” (2021), ChEMBL document CHEMBL3988442.